Results deposited as PubChem BioAssay AID1053208 (Peter MacCallum Cancer Centre, 2014)
Assay: 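Find knock-downs that sensitise mouse osteosarcoma cells to doxorubicin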 (primary screen). System: mouse osteosarcoma cells, early-passage culture from an engineered mouse model of fibroblastic bone tumour. Reagents: siRNA pool against mouse genes, 40 nM. Timing: about 120 h (48 h before drug, then 72 h with drug). Challenge: doxorubicin 100 nM for 72 h, roughly 30-40% inhibitory dose. Detection: 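Luminescent ATP signal taken as viability with or without 100 nM doxorubicin for 72 h; mean of two wells set against non-targeting siRNA and turned into robust z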. Direction: viability z-score with doxorubicin and doxorubicin viability vs non-targeting: higher = more viable cells under doxorubicin; viability z-score without drug: higher = more viable cells with knock-down alone; z-score of drug to no-drug ratio: higher = less drug sensitisation by knock-down. Call rule: 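a pool counts as active when its viability z-score with doxorubicin is -2 or below and its z-score without drug lies between -2 and 2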.
The whole screen tested about 17,000 reagents; shown is an unselected part. 788 of all reagents (4.7%) count as active. 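Calls rest on z-score classes alone; an extra cut-off of viability at most 70% of control was not applied to them.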 A number with no mark means an inactive call. The numbers tell different reagents against one gene apart.

no.	Target gene	reagent no.	combined z-score class	viability z-score with doxorubicin	viability z-score without drug	z-score of drug to no-drug ratio	doxorubicin viability vs non-targeting
1	Ube2t	1	no change with or without drug	-0.67	0.84	-1.12	0.88
2	Or5k8	1	no change with or without drug	-0.79	-1.01	0	0.87
3	Vmn1r38	1	high cell count with doxorubicin only	3.82	1.52	2.81	1.28
4	Brd2	1	no change with or without drug	0	-0.17	0.22	0.94
5	Smim11	1	no change with or without drug	-1.57	-0.84	-1.01	0.8
6	Irx3os	1	no change with or without drug	-0.45	1.52	-1.24	0.9
7	Cul4a	1	no change with or without drug	-1.12	0.17	-1.12	0.84
8	Tmem70	1	no change with or without drug	1.35	0.84	0.9	1.06
9	Tex264	1	no change with or without drug	0.67	-0.51	1.24	1
10	Pole	1	low cell count with doxorubicin only (active)	-2.25	-0.84	-1.8	0.74
11	Abca8b	1	no change with or without drug	-0.22	-0.51	0.22	0.92

Called active, of those listed so far:
Target gene	reagent no.	combined z-score class	viability z-score with doxorubicin	viability z-score without drug	z-score of drug to no-drug ratio	doxorubicin viability vs non-targeting
Pole	1	low cell count with doxorubicin only (active)	-2.25	-0.84	-1.8	0.74

The results go on.
no.	Target gene	reagent no.	combined z-score class	viability z-score with doxorubicin	viability z-score without drug	z-score of drug to no-drug ratio	doxorubicin viability vs non-targeting
12	Tspan1	1	no change with or without drug	1.01	1.18	0.34	1.03
13	Pgd	1	low cell count with doxorubicin only (active)	-2.7	-1.85	-1.69	0.7
14	Pkd2	1	no change with or without drug	0.45	-0.51	1.01	0.98
15	Aida	1	no change with or without drug	1.69	0.51	1.46	1.09
16	Csf2rb2	1	no change with or without drug	0.34	1.18	-0.34	0.97
17	Tbrg3	1	no change with or without drug	-1.01	-1.18	-0.11	0.85
18	Mbip	1	no change with or without drug	1.12	-0.51	1.69	1.04
19	Pemt	1	low cell count with doxorubicin only (active)	-2.59	-1.18	-1.91	0.71
20	Abi3bp	1	no change with or without drug	-0.34	-0.17	-0.11	0.91
21	A530053G22Rik	1	no change with or without drug	0.9	-1.18	2.02	1.02
22	Nprl2	1	no change with or without drug	-0.22	-0.84	0.45	0.92
23	Pla2g2a	1	no change with or without drug	0.79	0.17	0.79	1.01
24	H2az1	1	high cell count with doxorubicin only	2.36	1.52	1.46	1.15
25	Eno2	1	low cell count with doxorubicin only (active)	-2.81	-1.52	-2.02	0.69
26	Cabp1	1	no change with or without drug	0	0.34	-0.11	0.94
27	Map2k5	1	high cell count without drug only	1.69	2.87	-0.11	1.09
28	Ccl22	1	no change with or without drug	-0.45	-0.34	-0.11	0.9
29	Atf7	1	no change with or without drug	0.9	-0.84	1.69	1.02
30	Tbc1d16	1	high cell count with doxorubicin only	2.02	1.18	1.35	1.12
31	Taar1	1	no change with or without drug	-0.56	-1.01	0.22	0.89
32	Psme1	1	no change with or without drug	1.12	0	1.24	1.04
33	Scgb2b26	1	no change with or without drug	0.56	0.84	0.11	0.99
34	Scgb2b26	2	no change with or without drug	0	0.17	0	0.94
